Measured values reported in patent publication US20080020412A1, “Aurora expression constructs” (priority 2006, published 2008).
Some of these results come from one statement about several compounds together. Some ranges recur; such a range may be that of the whole group of compounds.

tested on: mouse Aurora-B; assay: Aurora-B enzyme activity assay (HTRF); assay type: biochemical; conditions: FIG. 5, HTRF delta F against enzyme concentration
Protocol: Aurora-B enzyme preparations were tested for kinase activity in the presence and absence of compounds using a homogeneous time resolved fluorescence (HTRF) assay. In brief, the assay was performed by adding enzyme under appropriate reaction conditions to a tagged substrate. After the kinase reaction proceeds, quenching reagent is added, along with a first molecule consisting of a fluorescence donor conjugated to an antibody recognizing the phosphorylated substrate, and a second molecule that recognizes the tag and that is conjugated to a fluorescence acceptor. The extent of the kinase reaction is measured by time-resolved fluorescence transfer from the fluorescence donor to the fluorescence acceptor in a detection buffer, which occurs when the donor and acceptor are in proximity to one another on the phosphorylated substrate.
The assay was carried out as follows. The compound to be tested is added in a 1.5 μL volume to a multiwell plate. Substrate and enzyme are added to the plate so that enzyme reactions were carried out under final concentrations of 120 mM biotin-conjugated histone-H3 peptide substrate (Upstate Cat. No. 12-403), 7.5 nM in house Aurora-B, 300 μM ATP, 1 mM DTT, and 1X IMAP reaction buffer (Molecular Devices Cat. No. R7209) in a 61.5 μL volume. As a positive control, a 50:50 mixture of phosphorylated and unphosphorylated biotinylated histone H3 was used at a final total concentration of 120 nM histone H3. […]
A 5 μL aliquot of the quenched reaction was transferred to a separate plate containing 5 μL detection buffer (final concentrations: 125 ng/mL europium cryptate-conjugated α-phospho H3 antibody, 8 nM streptavidin-tagged XL665, 25 mM HEPES buffer (pH 7.0), 0.25 M KF, and 0.05% BSA). The detection solution was allowed to incubate at room temperature for 45 min, after which the detection reactions were read on an Analyst AD (LJL Biosystems). […] Emission was detected at 665 nm and 620 nm, corresponding to excited XL665 and unbound europium cryptate emissions respectively. Delta F is a value calculated from the ratio between the 665 nm and 620 nm emissions. […]

Row | Molecule | enzyme concentration range showing measurable kinase activity [nM]
1 | Aurora B 8X.VK->LQ: mouse Aurora-B construct with Val291→Leu and Lys292→Gln (protein, listed as Mus musculus) KRQFTIDNFEIGRPLGKGKFGNVYLAREKKSRFIVALKILFKSQIEKEGVEHQLRREIEIQAHLKHPNILQLYNYFYDQQRIYLILEYAPRGELYKELQKSRTFDEQRTATIMEELSDALTYCHKKKVIHRDIKPENLLLGSQGELKIADFGWSVHAPSSRRKTMCGTLDYLPPEMIEGRMHNEKVDLWCIGVLCYELMVGNPPFESPSHSETYRRILQVDLKFPSSVTSGAQDLISKLLKHNPSQRLTLAEVAAHPWVRANSRRPS | 1 to 25
2 | mAurB 7X: truncated mouse Aurora-B with 7 hydrophobic surface residues mutated, GST-tagged (protein, listed as Mus musculus, GST tag, truncated mouse Aurora-B with 7 hydrophobic surface residues mutated, GST-tagged) KRQFTIDNFEIGRPLGKGKFGNVYLAREKKSRFIVALKILFKSQIEKEGVEHQLRREIEIQAHLKHPNILQLYNYFYDQQRIYLILEYAPRGELYKELQKSRTFDEQRTATIMEELSDALTYCHKKKVIHRDIKPENLLLGSQGELKIADFGWSVHAPSSRRKTMCGTLDYLPPEMIEGRMHNEKVDLWCIGVLCYELMVGNPPFESPSHSETYRRISKVDLKFPSSVTSGAQDLISKLLKHNPSQRLTLAEVAAHPWVRANSRRPS | 1 to 25
3 | Aurora B 8X.VK->LR: mouse Aurora-B construct with Val291→Leu and Lys292→Arg (protein, listed as Mus musculus) KRQFTIDNFEIGRPLGKGKFGNVYLAREKKSRFIVALKILFKSQIEKEGVEHQLRREIEIQAHLKHPNILQLYNYFYDQQRIYLILEYAPRGELYKELQKSRTFDEQRTATIMEELSDALTYCHKKKVIHRDIKPENLLLGSQGELKIADFGWSVHAPSSRRKTMCGTLDYLPPEMIEGRMHNEKVDLWCIGVLCYELMVGNPPFESPSHSETYRRILRVDLKFPSSVTSGAQDLISKLLKHNPSQRLTLAEVAAHPWVRANSRRPS | 1 to 25
